Data from PubChem BioAssay AID463205 (Broad Institute, 2010).
Out of some 2,400 compounds screened, about 20 (0.8%) were called active.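 Rule for the calls: active = AC50 no more than ten times the highest tested concentration, or full inhibition at every dose giving a flat fit (cut at about 30 µM in these data); inconclusive = flat fit with activity between 30% and 70%, or poor-quality invalid fit; inactive = AC50 more than ten times the top tested dose.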 This is one part of the list.

test: luciferase-based ADP detection interference – biochemical, luminescence, cell-free, homogeneous, artefact control for GSK-3a inhibitor project, dose response (AID 463205); details: Cell-free ADP-Glo detection reagents, 5 uM ADP;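 note: kinase-free counter-screen against the ADP-Glo detection reagents only; potency is for inhibitors that reduce the luminescence signal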

AC50, inactive:
O=C(Nc1ccccc1-c1nnc(SCc2ccc(Cl)cc2)o1)c1ccccc1 > 30 µM
NC(=O)c1cccc(S(=O)(=O)N2CC(c3ccccc3)CC2=O)c1 (stereo not drawn) > 30 µM
Cc1nc2c(ccc3c2ccc2nc(C)sc23)s1 > 30 µM
N#C/C(=N\Nc1ccccc1)C(N)=S > 30 µM
COc1ccc(N2CCOCC2)c(NC(=O)c2ccc(Br)o2)c1 > 30 µM
CCOC(=O)c1cnc2c(Cl)c(Cl)ccc2c1N1CCN(C)CC1 > 30 µM
COc1cc(/C=N/NC(=O)CSCc2ccc([N+](=O)[O-])cc2)cc(OC)c1OC > 30 µM
O=C1NC(=Nc2ccccc2Cl)S/C1=C\c1cc([N+](=O)[O-])ccc1O > 30 µM
CC1(C)Cc2c(sc3nn[nH]c(=O)c23)CO1 > 30 µM
O=C(c1ccc(Cl)cc1)c1cnc(Nc2ccccc2)s1 > 30 µM
O=C1NC(=Nc2cccc(O)c2)S/C1=C\c1cccc([N+](=O)[O-])c1 > 30 µM
COCCCNc1c2c3c(cccc3[nH]c1=O)C(=O)c1ccccc1-2 > 30 µM
COc1cccc(C2C(C(=O)OC(C)C)=C(C)Nc3ncnn32)c1 (stereo not drawn) > 30 µM
COc1ccc(-c2noc(CSc3nc(-c4ccccc4)cc(=O)[nH]3)n2)cc1 > 30 µM
CC(C)(C)OC(=O)N1CCC(NC(=O)c2[nH]cnc2C(=O)Nc2ccon2)CC1 > 30 µM
O=C(Nc1ccccc1-c1nnc(SCc2ccc(Cl)cc2Cl)o1)c1ccccc1 > 30 µM
CCOC(=O)C(CC)Sc1ccc2nnc(-c3cccnc3)n2n1 (stereo not drawn) > 30 µM
COC(=O)C1=C(C)Nc2[nH]c(=S)[nH]c(=O)c2C1c1ccc(O)cc1 (stereo not drawn) > 30 µM
Cc1c(C(=O)N/N=C/c2ccc(O)c(Br)c2)sc(N)c1C#N > 30 µM
CCN1CCN(c2nc(N)c([N+](=O)[O-])c(Nc3ccc(C)cc3)n2)CC1 > 30 µM
CC1CCCC(C)N1C(=O)COC(=O)Cc1c[nH]c2ccccc12 (stereo not drawn) > 30 µM
O=c1cc(-c2ccco2)oc2c1ccc1ccccc12 > 30 µM
Cc1ccc(Sc2ccc(NC(=O)CCl)cc2)c(C)c1 > 30 µM
CCN=C(NC#N)SCc1c(F)cccc1Cl > 30 µM
COc1ccccc1/C=C1\S/C(=N/NC(=O)c2cccc(Br)c2)NC1=O > 30 µM
O=C(O)Cn1cc(/C=N/NC(=O)c2cc3cc(Br)ccc3o2)c2ccccc21 > 30 µM
COc1ccc(C(=O)Nc2nncs2)cc1S(=O)(=O)N1CC(c2ccccc2)CC1=O (stereo not drawn) > 30 µM
COc1ccc(-n2c(C)c([N+](=O)[O-])c3ccc(O)c(CN4CCCCC4)c32)cc1 > 30 µM
O=C(CN1CCCCCC1)Nc1ccccc1Oc1ccccc1 > 30 µM
NC(=O)c1sc2nc3c(c(-c4cccnc4)c2c1N)CCC3 > 30 µM
CN(C)c1ncnc2c1ncn2C1OC(CO)C(O)C1O (stereo not drawn) > 30 µM
COc1cc(C2CC(=O)Nc3n[nH]c(-c4ccccc4)c32)cc(OC)c1OC (stereo not drawn) > 30 µM
O=C(NCC1CCN(Cc2ccccc2Cl)CC1)Nc1ccccc1F > 30 µM
COc1ccc2[nH]c(C(=O)O)c(NS(=O)(=O)c3ccc(OC)c(OC)c3)c2c1 > 30 µM
CCn1c(=O)[nH]c(=O)c2c(N)c(C(=O)c3cc(F)ccc3F)sc21 > 30 µM
CC1=C(C(=O)OC(C)C)C(c2cccc(F)c2)n2ncnc2N1 (stereo not drawn) > 30 µM
O/N=C1/CC/C(=N\O)c2nn(-c3ccccc3)nc21 > 30 µM
CC1=C(C(=O)OC(C)C)C(c2cccnc2)n2ncnc2N1 (stereo not drawn) > 30 µM
Nc1c(S(=O)(=O)c2ccccc2)nnn1-c1ccccc1 > 30 µM
Cc1cc(/C=N/O)c(C)n1-c1ccc(Br)cc1 > 30 µM
Cc1cccc(C(=O)OCC(=O)Nc2c(C)n(C)n(-c3ccccc3)c2=O)c1 > 30 µM
O=C(Nc1ccccc1)c1cc(-n2cnnc2)ccc1Cl > 30 µM
Brc1ccc(C2=Nn3c(nnc3-c3cccnc3)SC2)s1 > 30 µM
O=C(c1ccco1)N(Cc1ccc([N+](=O)[O-])cc1)c1ccc(Br)cc1 > 30 µM
CCOC(=O)c1sc(NC(=O)CSc2nnc(-c3ccc(OC)cc3)n2CCOC)nc1C > 30 µM
CCc1cc(C(=O)c2ccc(C)cc2)c(NC(=O)CCl)s1 > 30 µM
Oc1ccc(-c2nnc(-c3ccccc3)c(-c3ccccc3)n2)cc1 > 30 µM
CCC(=O)N1CCN(c2cc(NCC3CCCO3)c(F)cc2[N+](=O)[O-])CC1 (stereo not drawn) > 30 µM
COc1cc(C2C(C#N)=C(N)Oc3n[nH]c(-c4cccnc4)c32)cc(Br)c1O (stereo not drawn) > 30 µM
Cc1[nH]c2ccccc2c1N=Nc1cccc(C(=O)O)c1 > 30 µM
COc1ccc(/C=C/c2nc(N)nc(-c3ccccc3O)n2)cc1OC > 30 µM
N#Cc1sc2nc(-c3cccs3)cc(-c3ccccc3)c2c1N > 30 µM
Cc1ccc(S(=O)(=O)N(CC(O)CN2CCCC2)c2ccccc2)cc1 (stereo not drawn) > 30 µM
COc1ccc(/C=C(/NC(=O)c2ccc([N+](=O)[O-])cc2)C(=O)NC(C)(C)C)cc1 > 30 µM
CC(=C/c1ccccc1)/C=N/NC(=O)c1nnn(-c2nonc2N)c1CN1CCC(C)CC1 > 30 µM
CCN1CCN(CC(=O)Nc2nc3ccc(OC)cc3s2)CC1 > 30 µM
CC(C)CC(=O)Nc1ccc(-c2cn3cccnc3n2)cc1 > 30 µM
COc1ccc(CNc2cc(NCCCO)c([N+](=O)[O-])c3nonc23)cc1 > 30 µM

Reprinted at random: 5 compounds from above
AC50, inactive:
COc1ccc(-n2c(C)c([N+](=O)[O-])c3ccc(O)c(CN4CCCCC4)c32)cc1 > 30 µM
CC(C)(C)OC(=O)N1CCC(NC(=O)c2[nH]cnc2C(=O)Nc2ccon2)CC1 > 30 µM
CC(C)CC(=O)Nc1ccc(-c2cn3cccnc3n2)cc1 > 30 µM
CC1CCCC(C)N1C(=O)COC(=O)Cc1c[nH]c2ccccc12 (stereo not drawn) > 30 µM
CN(C)c1ncnc2c1ncn2C1OC(CO)C(O)C1O (stereo not drawn) > 30 µM
